Laboratory results: PubChem BioAssay AID686938 (Drosophila RNAi Screening Center, 2013)

Test: 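Looking for CRAC channel components and the factors controlling them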 (primary screen)
Cell system: Drosophila S2R+ cells
Reagent: long dsRNA against Drosophila genes, about 0.25 µg dsRNA per well, roughly 10,000 cells
Timing: 5 days of knock-down before the calcium assay
Challenge: thapsigargin (SERCA pump blocker) to empty calcium stores; entry signal taken 4 min after adding it
Measurement: 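Duplicate raw fluo-4 intensities per well from a plate reader, at rest and four minutes after thapsigargin emptied calcium stores; entry-to-rest ratio filled for only some wells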
Direction: calcium entry signal: higher = stronger calcium signal after store depletion; resting calcium signal: higher = higher resting calcium signal
Active means: 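Called when the plate z-score of the entry-to-rest ratio, mean of duplicates, falls below −3; wells with low overall dye signal (Fmax z below −2) or more than five off-targets excluded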
Calls: active = strongly reduced calcium entry; inactive = no strong reduction
The deposit covers about 23,000 reagents; this is an unselected part of those with a known target gene and a result. Over the whole deposit, 75 (0.33%) got an active call. 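Raw plate signals without normalisation; calls rest on plate z-scores that were not deposited; ratio present for only 364 wells.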 The numbers tell different reagents against one gene apart. Not given: the dose of the treatment.

no.	Gene	reagent	calcium entry signal, replicate 1 (fluorescence units)	calcium entry signal, replicate 2 (fluorescence units)	resting calcium signal, replicate 1 (fluorescence units)	resting calcium signal, replicate 2 (fluorescence units)	Call
1	CG11883	1	4.42e7	4.35e7	1.93e7	2.06e7	inactive
2	CycE (Cyclin E)	1	3.06e7		1.96e7		inactive
3	CycE (Cyclin E)	2	3.52e7	2.31e7	1.98e7	1.31e7	inactive
4	CG7953	1	4.01e7		1.87e7		inactive
5	HIPP1 (HP1 and insulator partner protein 1)	1	4.73e7	5.10e7	2.10e7	3.55e7	inactive
6	Mayo	1	4.65e7	5.05e7	2.43e7	2.16e7	inactive
7	CG14883	1	3.11e7	6.05e7	1.67e7	6.74e7	inactive
8	CG13334	1	3.29e7	4.05e7	1.65e7	1.83e7	inactive
9	VhaAC45RP (VhaAC45-related protein)	1	5.27e7	2.92e7	2.57e7	1.61e7	inactive
10	CG34050 (retired record)	1	4.79e7	3.71e7	2.65e7	2.00e7	inactive
11	CG12362	1	1.45e7	2.32e7	8.64e6	1.14e7	inactive
12	Apl (Apollo)	1	3.98e7	5.98e7	1.85e7	2.20e7	inactive
13	Marf (Mitochondrial assembly regulatory factor)	1	3.19e7	3.62e7	1.56e7	1.75e7	inactive
14	Eglp2 (Entomoglyceroporin 2)	1	3.88e7		2.00e7		inactive
15	CG18649	1	3.14e7	5.23e7	1.56e7	2.06e7	inactive
16	Apc2 (Adenomatous polyposis coli 2)	1	2.99e7	3.17e7	1.43e7	1.30e7	inactive
17	Sk1 (Sphingosine kinase 1)	1	2.15e7	2.76e7	1.25e7	1.36e7	inactive
18	CG5262	1	3.91e7	4.74e7	1.80e7	3.34e7	inactive
19	gl (glass)	1	4.55e7	4.78e7	5.34e7	2.17e7	inactive
20	peng (penguin)	1	4.50e7	4.06e7	2.03e7	1.63e7	inactive
21	CG13323	1	2.09e7	3.36e7	1.07e7	1.41e7	inactive
22	Pur-alpha (Purine-rich binding protein-alpha)	1	2.75e7	4.52e7	1.38e7	1.86e7	inactive
23	srl (spargel)	1	3.41e7	5.32e7	1.66e7	2.48e7	inactive
24	CG13623	1	3.80e7	4.21e7	1.99e7	1.94e7	inactive
